Experimental data reported in PubChem BioAssay (EPA / NIEHS).
Inconclusive results, whose numbers are uncertain, are shown with a selection of clear calls. Where the call is inconclusive, the potency comes from a doubtful curve fit. Active and inactive are the calls of the source. The calls were made as follows: active = hit-call score of the fitted dose curve at least 0.9, where 1 is the maximum; inconclusive = response in the unintended direction; inactive = score below 0.9.

Chains of the proteins cited; added tags and fusions are not shown. Lines headed by an entry give the natural chain unless they say otherwise; changes in a name come on top.
UniProt P09237: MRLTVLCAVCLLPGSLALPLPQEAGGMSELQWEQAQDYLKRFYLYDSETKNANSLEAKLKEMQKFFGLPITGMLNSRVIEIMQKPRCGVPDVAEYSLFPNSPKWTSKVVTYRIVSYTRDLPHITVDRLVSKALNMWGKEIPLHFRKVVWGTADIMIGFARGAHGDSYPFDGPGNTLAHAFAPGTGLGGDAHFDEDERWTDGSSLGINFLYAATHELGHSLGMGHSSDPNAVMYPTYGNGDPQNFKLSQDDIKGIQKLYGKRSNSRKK

Target: human Matrix Metalloproteinase-7 (MMP7), MMP7 (gene 4316) (UniProt P09237)
Assay: NVS_ENZ_hMMP7: NovaScreen (NVS) Enzymatic Assay for human Matrix Metalloproteinase-7 (MMP7) (AID 2283183)
How it was run: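 Cell-free fluorescence enzymatic assay read 1 h after compound addition, activity loss analyzed against DMSO. Primary duplicate testing at 25 uM; compounds meeting threshold rerun in singleton concentration-response up to 50 uM.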

Row | Structure (SMILES) | outcome | AC50
1 | CC(C)(C)c1cc(O)c(C(C)(C)C)cc1O | inactive | –
2 | CN[C@H]1CC[C@@H](c2ccc(Cl)c(Cl)c2)c2ccc(S(N)(=O)=O)cc21 | inactive | –
3 | Clc1cc(Cl)c(Cl)cc1Cl | – | inconclusive: 5.07 µM
4 | CCCCCCCCCCCC(=O)OC | inactive | –
